# Experimental data from the supplement of paper PMC6411743.
# Amino acid sequences for entries named in this document (tags omitted). A change or cut given only in a name is not applied to a line headed by its entry.
# UniProt P83916, whole entry, looked up: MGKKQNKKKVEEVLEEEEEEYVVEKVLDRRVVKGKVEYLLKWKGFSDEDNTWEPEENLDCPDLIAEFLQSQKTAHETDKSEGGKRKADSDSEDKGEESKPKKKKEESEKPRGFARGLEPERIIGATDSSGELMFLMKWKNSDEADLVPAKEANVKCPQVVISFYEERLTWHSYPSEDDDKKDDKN
# UniProt P68036, whole entry: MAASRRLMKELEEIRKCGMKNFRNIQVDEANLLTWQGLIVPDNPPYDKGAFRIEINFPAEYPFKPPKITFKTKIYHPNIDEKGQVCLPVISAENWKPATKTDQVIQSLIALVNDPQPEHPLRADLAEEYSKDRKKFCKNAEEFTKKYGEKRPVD
# UniProt P53567: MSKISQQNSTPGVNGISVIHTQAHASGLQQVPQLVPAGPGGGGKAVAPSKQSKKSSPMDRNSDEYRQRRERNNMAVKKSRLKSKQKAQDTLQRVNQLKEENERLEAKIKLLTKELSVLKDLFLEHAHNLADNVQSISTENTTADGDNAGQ
# UniProt P62318, whole entry: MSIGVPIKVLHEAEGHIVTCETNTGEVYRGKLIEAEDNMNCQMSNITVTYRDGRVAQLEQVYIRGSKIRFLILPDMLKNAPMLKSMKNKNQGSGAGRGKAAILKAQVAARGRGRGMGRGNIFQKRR
# UniProt P62380: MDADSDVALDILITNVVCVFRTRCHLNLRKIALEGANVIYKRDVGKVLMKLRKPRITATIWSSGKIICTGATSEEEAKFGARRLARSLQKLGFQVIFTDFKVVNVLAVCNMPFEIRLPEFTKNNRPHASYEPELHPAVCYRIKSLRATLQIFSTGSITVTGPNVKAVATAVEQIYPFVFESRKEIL
# UniProt P55081: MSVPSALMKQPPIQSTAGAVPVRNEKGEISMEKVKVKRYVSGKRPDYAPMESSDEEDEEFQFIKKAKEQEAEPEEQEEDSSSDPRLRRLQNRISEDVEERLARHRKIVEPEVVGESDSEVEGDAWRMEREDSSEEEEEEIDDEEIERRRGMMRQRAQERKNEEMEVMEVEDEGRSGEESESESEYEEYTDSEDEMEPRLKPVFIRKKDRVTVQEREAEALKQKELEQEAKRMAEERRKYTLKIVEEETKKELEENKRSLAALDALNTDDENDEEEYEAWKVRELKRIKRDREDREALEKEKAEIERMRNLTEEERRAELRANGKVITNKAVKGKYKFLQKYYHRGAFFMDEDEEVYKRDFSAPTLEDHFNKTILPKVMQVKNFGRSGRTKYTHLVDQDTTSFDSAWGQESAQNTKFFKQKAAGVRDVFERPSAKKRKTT
# UniProt P60468, whole entry: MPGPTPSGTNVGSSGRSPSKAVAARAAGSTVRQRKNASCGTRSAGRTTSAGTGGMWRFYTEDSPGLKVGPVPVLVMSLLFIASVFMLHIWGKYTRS
# UniProt P54687: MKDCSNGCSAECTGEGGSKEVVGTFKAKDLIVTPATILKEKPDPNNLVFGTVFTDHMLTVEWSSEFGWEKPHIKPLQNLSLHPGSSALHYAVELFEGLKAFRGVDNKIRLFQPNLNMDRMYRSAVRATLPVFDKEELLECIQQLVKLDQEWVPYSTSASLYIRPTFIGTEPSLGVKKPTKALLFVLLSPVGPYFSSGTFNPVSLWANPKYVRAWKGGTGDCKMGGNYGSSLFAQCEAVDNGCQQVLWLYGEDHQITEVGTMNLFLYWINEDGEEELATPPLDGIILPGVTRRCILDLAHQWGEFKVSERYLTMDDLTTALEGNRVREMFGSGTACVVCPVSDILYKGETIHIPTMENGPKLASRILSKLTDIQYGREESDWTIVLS
# UniProt P55263: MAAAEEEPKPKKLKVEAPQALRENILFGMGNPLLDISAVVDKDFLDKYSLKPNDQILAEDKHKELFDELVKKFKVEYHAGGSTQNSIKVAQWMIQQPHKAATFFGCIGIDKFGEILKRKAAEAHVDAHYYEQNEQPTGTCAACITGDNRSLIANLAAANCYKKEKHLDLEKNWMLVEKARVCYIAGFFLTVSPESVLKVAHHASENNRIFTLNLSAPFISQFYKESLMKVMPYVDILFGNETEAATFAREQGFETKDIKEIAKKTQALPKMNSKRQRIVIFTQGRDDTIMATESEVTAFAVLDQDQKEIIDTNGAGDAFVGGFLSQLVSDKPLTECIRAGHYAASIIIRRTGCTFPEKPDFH
# UniProt P61970, whole entry: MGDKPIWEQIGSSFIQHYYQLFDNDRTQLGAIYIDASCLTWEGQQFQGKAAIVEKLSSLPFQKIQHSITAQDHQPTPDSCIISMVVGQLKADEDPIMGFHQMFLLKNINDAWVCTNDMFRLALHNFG
# UniProt P62258: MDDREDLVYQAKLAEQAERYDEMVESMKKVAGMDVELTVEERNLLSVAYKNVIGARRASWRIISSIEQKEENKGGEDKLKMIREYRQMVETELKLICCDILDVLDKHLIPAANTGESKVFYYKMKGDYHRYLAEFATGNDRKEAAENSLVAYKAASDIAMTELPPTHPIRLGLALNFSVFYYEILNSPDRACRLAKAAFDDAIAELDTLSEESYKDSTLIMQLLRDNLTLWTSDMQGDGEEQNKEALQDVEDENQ
# UniProt P61968: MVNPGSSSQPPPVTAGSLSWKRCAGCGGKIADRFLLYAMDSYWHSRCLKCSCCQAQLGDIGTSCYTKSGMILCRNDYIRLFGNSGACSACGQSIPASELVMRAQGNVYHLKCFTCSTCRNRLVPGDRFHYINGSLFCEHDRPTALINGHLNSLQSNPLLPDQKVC
# UniProt P54132: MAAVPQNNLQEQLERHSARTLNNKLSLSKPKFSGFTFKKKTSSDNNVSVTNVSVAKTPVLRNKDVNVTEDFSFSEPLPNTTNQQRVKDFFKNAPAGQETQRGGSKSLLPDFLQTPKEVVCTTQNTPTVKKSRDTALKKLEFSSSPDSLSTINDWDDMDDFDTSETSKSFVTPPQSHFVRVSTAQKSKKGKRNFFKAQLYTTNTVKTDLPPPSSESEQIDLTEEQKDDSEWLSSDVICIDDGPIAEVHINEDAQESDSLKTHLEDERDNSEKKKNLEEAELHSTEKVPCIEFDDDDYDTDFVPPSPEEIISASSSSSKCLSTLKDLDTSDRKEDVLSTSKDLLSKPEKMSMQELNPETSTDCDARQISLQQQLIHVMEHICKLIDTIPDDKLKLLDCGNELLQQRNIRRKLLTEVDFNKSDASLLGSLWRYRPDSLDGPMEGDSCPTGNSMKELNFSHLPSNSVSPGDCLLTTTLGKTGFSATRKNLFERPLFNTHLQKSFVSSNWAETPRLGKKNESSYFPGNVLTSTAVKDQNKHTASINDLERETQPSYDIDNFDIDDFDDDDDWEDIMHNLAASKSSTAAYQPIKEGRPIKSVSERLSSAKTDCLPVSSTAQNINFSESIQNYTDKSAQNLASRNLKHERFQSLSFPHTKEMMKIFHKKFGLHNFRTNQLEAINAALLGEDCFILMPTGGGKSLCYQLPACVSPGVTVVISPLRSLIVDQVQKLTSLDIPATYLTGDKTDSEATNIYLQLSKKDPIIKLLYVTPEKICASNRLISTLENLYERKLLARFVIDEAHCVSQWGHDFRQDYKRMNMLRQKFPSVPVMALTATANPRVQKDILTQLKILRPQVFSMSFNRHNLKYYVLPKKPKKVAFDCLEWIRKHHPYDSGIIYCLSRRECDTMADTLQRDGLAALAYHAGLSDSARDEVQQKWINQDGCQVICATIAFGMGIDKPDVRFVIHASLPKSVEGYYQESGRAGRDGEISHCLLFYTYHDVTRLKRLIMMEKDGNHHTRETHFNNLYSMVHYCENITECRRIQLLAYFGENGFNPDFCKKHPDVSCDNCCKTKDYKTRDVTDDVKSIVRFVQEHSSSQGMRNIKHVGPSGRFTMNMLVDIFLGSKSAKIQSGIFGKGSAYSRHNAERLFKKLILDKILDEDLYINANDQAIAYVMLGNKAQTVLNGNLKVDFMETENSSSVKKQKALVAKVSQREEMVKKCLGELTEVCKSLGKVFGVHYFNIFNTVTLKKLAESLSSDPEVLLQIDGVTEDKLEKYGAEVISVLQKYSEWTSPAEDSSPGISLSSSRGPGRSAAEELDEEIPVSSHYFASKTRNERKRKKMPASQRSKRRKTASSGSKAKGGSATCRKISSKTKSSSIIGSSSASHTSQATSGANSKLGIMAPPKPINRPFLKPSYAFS
# UniProt P57081: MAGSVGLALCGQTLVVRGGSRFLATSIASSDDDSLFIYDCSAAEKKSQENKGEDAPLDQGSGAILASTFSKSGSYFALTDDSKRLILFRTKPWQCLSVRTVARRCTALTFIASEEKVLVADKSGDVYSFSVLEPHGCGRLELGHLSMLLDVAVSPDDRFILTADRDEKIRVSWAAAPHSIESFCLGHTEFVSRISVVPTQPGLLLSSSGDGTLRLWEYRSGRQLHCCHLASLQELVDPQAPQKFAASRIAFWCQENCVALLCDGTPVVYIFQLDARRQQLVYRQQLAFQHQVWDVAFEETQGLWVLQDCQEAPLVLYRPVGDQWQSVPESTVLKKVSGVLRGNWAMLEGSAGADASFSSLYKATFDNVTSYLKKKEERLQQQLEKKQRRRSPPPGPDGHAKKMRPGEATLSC
# UniProt P56202: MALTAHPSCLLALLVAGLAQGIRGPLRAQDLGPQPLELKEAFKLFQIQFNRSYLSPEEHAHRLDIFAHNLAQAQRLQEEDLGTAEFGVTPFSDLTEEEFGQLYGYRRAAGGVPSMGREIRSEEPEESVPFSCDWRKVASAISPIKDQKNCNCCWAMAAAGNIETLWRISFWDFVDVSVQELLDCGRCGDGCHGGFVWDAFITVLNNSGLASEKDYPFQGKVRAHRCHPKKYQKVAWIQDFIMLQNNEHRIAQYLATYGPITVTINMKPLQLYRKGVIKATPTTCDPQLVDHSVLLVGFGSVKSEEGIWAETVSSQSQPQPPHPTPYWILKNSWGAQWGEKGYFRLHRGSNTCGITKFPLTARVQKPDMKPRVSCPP
# UniProt P83876: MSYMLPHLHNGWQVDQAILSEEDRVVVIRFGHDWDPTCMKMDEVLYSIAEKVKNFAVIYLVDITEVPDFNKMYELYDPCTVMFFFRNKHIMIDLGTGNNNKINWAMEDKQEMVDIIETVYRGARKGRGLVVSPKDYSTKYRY
# UniProt P56192: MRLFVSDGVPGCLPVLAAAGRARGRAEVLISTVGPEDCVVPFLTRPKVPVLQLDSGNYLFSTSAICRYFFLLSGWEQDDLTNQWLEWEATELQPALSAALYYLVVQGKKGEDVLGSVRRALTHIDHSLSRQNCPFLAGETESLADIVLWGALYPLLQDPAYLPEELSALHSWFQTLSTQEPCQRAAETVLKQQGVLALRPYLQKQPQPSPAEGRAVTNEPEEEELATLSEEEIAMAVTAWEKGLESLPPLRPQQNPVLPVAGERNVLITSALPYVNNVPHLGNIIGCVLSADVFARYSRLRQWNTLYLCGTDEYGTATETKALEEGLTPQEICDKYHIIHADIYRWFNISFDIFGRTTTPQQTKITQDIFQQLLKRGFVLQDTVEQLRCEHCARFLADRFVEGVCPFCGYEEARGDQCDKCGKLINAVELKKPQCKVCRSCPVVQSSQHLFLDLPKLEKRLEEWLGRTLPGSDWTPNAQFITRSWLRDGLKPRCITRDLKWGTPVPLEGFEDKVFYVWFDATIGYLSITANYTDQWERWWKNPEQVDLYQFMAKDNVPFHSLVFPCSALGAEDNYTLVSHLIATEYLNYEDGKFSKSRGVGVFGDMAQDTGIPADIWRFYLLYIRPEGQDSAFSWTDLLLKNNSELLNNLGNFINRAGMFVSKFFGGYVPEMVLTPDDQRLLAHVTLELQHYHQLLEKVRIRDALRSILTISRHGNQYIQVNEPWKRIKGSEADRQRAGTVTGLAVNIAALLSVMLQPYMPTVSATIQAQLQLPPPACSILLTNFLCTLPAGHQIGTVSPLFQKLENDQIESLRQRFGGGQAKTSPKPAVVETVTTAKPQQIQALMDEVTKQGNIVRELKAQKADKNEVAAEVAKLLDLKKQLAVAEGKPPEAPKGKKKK
# UniProt P61163, whole entry: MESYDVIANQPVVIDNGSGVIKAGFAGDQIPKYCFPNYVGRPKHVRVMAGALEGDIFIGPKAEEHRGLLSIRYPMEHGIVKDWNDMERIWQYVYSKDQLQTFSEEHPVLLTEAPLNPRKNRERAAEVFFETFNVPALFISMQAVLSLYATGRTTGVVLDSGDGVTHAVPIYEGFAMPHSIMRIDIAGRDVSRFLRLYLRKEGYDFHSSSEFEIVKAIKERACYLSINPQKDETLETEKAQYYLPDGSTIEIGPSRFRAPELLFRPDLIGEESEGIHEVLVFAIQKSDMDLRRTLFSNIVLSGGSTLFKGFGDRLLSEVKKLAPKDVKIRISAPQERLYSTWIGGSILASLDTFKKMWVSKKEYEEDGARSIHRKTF
# UniProt P56559: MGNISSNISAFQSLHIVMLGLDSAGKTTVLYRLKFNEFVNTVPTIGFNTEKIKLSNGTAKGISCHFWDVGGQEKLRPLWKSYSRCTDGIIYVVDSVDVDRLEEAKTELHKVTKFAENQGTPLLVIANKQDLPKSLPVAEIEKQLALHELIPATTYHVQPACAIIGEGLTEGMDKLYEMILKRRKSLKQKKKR
# UniProt P62312: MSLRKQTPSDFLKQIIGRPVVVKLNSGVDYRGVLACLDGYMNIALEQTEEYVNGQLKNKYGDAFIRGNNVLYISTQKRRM
# ± gives the standard deviation of the averaged measurements. Only a part is listed here, and it is no random draw.
# Compound: Nc1ncnc2c1ncn2[C@@H]1O[C@H](COP(=O)(O)OP(=O)(O)OP(=O)(O)O)[C@@H](O)[C@H]1O [adenosine triphosphate]
# Assay: NP40-soluble protein abundance relative to vehicle (solubility fold change) (ratio); higher = more soluble protein in presence of ATP
# Outline: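 Jurkat crude lysate prepared with a Dounce homogeniser was treated at eight concentrations spanning 0.1 to 10 mM, 10 min at room temperature then 3 min at 37 °C. Solubilisation with 0.8% NP40 and benzonase and ultracentrifugation preceded TMT labelling of the supernatant for LC-MS/MS. Fold change against the detergent-processed vehicle was determined per replicate from vsn-normalised intensities, across three independent experiments.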
Target,NP40-soluble protein abundance (concentration: 1mM),NP40-soluble protein abundance (concentration: 2mM),NP40-soluble protein abundance (concentration: 4mM),NP40-soluble protein abundance (concentration: 6mM),NP40-soluble protein abundance (concentration: 8mM),NP40-soluble protein abundance (concentration: 10mM)
UniProt P83916,1.04 ± 0.099,1 ± 0.043,1.01 ± 0.064,1.01 ± 0.042,1.01 ± 0.021,0.972 ± 0.017
UniProt P68036,0.952 ± 0.15,0.883 ± 0.044,0.856 ± 0.14,0.913 ± 0.037,0.935 ± 0.067,0.777 ± 0.11
UniProt P63244,0.942 ± 0.049,0.861 ± 0.031,0.812 ± 0.023,0.778 ± 0.044,0.75 ± 0.028,0.78 ± 0.047
UniProt P61927,0.975 ± 0.1,0.95 ± 0.12,0.983 ± 0.17,1.07 ± 0.3,0.724 ± 0.028,0.933 ± 0.14
HNRNPH2 (UniProt P55795),1.04 ± 0.064,1.04 ± 0.046,1.05 ± 0.037,1.01 ± 0.059,1.07 ± 0.052,1.04 ± 0.068
CEBPG (UniProt P53567),1.03 ± 0.15,1.03 ± 0.22,1.04 ± 0.13,1.14 ± 0.19,0.893 ± 0.043,0.975 ± 0.07
UniProt P62318 and related entries,1.14 ± 0.1,1.14 ± 0.082,1.16 ± 0.097,1.36 ± 0.13,1.34 ± 0.13,1.38 ± 0.11
UniProt P62380 and related entries,0.849 ± 0.13,0.897 ± 0.14,0.905 ± 0.11,0.735 ± 0.11,0.864 ± 0.097,0.9 ± 0.079
POLR2K (UniProt P53803),1.02 ± 0.12,1.03 ± 0.049,1.08 ± 0.11,1.02 ± 0.051,1.02 ± 0.082,1.12 ± 0.083
MFAP1 (UniProt P55081),1.02 ± 0.084,1.01 ± 0.042,0.921 ± 0.044,0.957 ± 0.051,0.875 ± 0.023,0.887 ± 0.049
SRP54 (UniProt P61011),0.974 ± 0.031,0.986 ± 0.027,0.977 ± 0.042,1.02 ± 0.012,1.02 ± 0.047,1.03 ± 0.034
UniProt P62899,0.927 ± 0.1,0.947 ± 0.19,0.918 ± 0.2,0.892 ± 0.2,0.741 ± 0.17,1 ± 0.17
SEC61B (UniProt P60468),0.855 ± 0.17,0.857 ± 0.15,0.87 ± 0.16,0.837 ± 0.14,0.883 ± 0.089,0.789 ± 0.19
UniProt P54687 and related entries,0.998 ± 0.028,0.997 ± 0.027,0.979 ± 0.076,0.952 ± 0.067,0.982 ± 0.061,0.956 ± 0.061
ADK (UniProt P55263),0.976 ± 0.043,0.988 ± 0.032,0.931 ± 0.024,0.937 ± 0.076,0.934 ± 0.011,0.964 ± 0.02
UniProt P61970,1.001 ± 0.0067,0.992 ± 0.054,0.937 ± 0.045,0.977 ± 0.048,0.938 ± 0.06,0.917 ± 0.062
UniProt P62258,0.945 ± 0.027,0.9459 ± 0.0072,0.9189 ± 0.0077,0.9464 ± 0.0075,0.922 ± 0.013,0.898 ± 0.041
LMO4 (UniProt P61968),0.861 ± 0.02,0.963 ± 0.013,0.924 ± 0.017,0.852 ± 0.059,0.96 ± 0.021,0.976 ± 0.04
BLM (UniProt P54132),1 ± 0.028,1.03 ± 0.03,1.04 ± 0.036,1.06 ± 0.021,1.1 ± 0.048,1.13 ± 0.036
MLLT10 (UniProt P55197),1.04 ± 0.1,1.11 ± 0.31,1.28 ± 0.28,1.25 ± 0.39,1.29 ± 0.15,1.3 ± 0.23
MRPS5 (UniProt P82675),1.042 ± 0.0061,0.933 ± 0.075,0.925 ± 0.062,0.916 ± 0.14,0.906 ± 0.11,0.859 ± 0.098
UniProt P62244 and related entries,0.882 ± 0.054,0.795 ± 0.03,0.704 ± 0.046,0.693 ± 0.047,0.653 ± 0.12,0.688 ± 0.073
UniProt P57081 and related entries,1.02 ± 0.1,1.04 ± 0.091,1.03 ± 0.1,0.946 ± 0.039,0.968 ± 0.079,0.996 ± 0.021
UniProt P56202 and related entries,0.996 ± 0.068,0.969 ± 0.044,0.948 ± 0.046,1.02 ± 0.071,0.974 ± 0.062,0.955 ± 0.034
UniProt P83876,1.13 ± 0.1,1.15 ± 0.071,1.15 ± 0.091,1.15 ± 0.072,1.22 ± 0.12,1.22 ± 0.058
UniProt P53384 and related entries,0.98 ± 0.035,0.942 ± 0.016,0.928 ± 0.031,0.964 ± 0.056,0.883 ± 0.032,0.914 ± 0.038
MARS (UniProt P56192),0.99 ± 0.05,0.963 ± 0.013,0.915 ± 0.0096,0.938 ± 0.11,0.97 ± 0.051,0.953 ± 0.052
UniProt P61163,1.04 ± 0.038,0.999 ± 0.03,0.996 ± 0.022,0.959 ± 0.046,1.03 ± 0.046,0.97 ± 0.033
UniProt P56559 and related entries,1.23 ± 0.067,1.24 ± 0.019,1.22 ± 0.031,1.21 ± 0.076,1.29 ± 0.12,1.22 ± 0.0015
UniProt P62312,0.948 ± 0.059,0.971 ± 0.043,0.912 ± 0.03,0.929 ± 0.027,0.921 ± 0.042,0.896 ± 0.039
